Results taken from EP3382005A2, “EX VIVO MODEL FOR NEURODEGENERATIVE DISEASES” (Neuro-Bio Ltd, priority 2017, dated 2018).
At least one structure is not confirmed: it was looked up by name or label, or the drawing left a doubt. Square brackets hold non-standard residues; d marks the D form. Peptide text beside a SMILES is read from it. Phe(4-COOH) = N[C@@H](Cc1ccc(C(=O)O)cc1)C(=O)O; 2Nal = N[C@@H](Cc1ccc2ccccc2c1)C(=O)O; cisHyp = O=C(O)[C@@H]1C[C@H](O)CN1

Sequences of proteins named here, by UniProt entry; tags and fusion partners are left off. Residues count along the entry.
UniProt Q05941, 23-502: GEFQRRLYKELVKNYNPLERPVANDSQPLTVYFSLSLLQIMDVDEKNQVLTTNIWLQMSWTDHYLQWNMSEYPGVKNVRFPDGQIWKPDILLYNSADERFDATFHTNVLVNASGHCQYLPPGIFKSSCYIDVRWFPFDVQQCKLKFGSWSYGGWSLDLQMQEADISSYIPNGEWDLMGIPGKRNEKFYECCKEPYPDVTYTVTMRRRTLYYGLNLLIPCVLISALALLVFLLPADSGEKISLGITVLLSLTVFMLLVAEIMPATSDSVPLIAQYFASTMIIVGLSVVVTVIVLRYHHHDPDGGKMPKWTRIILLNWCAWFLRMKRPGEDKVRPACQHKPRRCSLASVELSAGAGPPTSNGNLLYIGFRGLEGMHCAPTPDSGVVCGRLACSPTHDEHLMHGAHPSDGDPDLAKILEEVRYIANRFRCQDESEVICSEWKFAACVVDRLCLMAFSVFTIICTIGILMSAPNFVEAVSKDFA

Tests used:
[1] = target: T1, alpha7 nicotinic receptor (Rattus norvegicus, UniProt Q05941); assay: Calcium influx test in PC12 cells; type: cell-based
T1 construct: endogenous in cells; host or cells: PC12 cells

T14 = assay: ex-vivo brain slice assay, Western blot of endogenous T14; type: cell-based, rat; conditions: 2 µM compound in aCSF, 5 hours, treated vs contralateral control hemisections, rostral, intermediate and caudal slices
APP = assay: ex-vivo brain slice assay, Western blot of APP; type: cell-based, rat; conditions: ex-vivo brain slices, 2 µM, 5 hours
AChE = AChE activity test in PC12 cells; type: cell-based

## CC(=O)N[C@@H](Cc1ccc2ccccc2c1)C(=O)N[C@@H](Cc1ccc(C(=O)O)cc1)C(=O)N1C[C@@H](O)C[C@H]1C(N)=O [Tri01, 4-((S)-2-((S)-2-acetamido-3-(naphthalen-2-yl)propanamido)-3-((2S,4S)-2-carbamoyl-4-hydroxypyrrolidin-1-yl)-3-oxopropyl)benzoate] (Ac-[2Nal]-[Phe(4-COOH)]-[cisHyp]-NH2)
[1]; compound alone, 0.1 µM to 0.7 µM
  calcium influx by the specific alpha7 agonist PNU282987: potentiating calcium influx
[1]; in the presence of T30, at the high doses
  calcium influx: synergise by blocking the receptor
T14
  endogenous T14 expression, treated vs control: did not show any change
APP
  APP levels, treated vs control: increase
AChE; compound alone, 0.1µM to 10µM
  AChE activity: induced an increase in AChE activity in a concentration-dependent manner
AChE; in the presence of T30 1µM
  AChE activity: reduced
